The values below come from patent US20240294632A1.

Protein sequences, listed by entry. Tags and fused reporters are not part of them. Residues count along the entry.
UniProt P02769, residues 25-607: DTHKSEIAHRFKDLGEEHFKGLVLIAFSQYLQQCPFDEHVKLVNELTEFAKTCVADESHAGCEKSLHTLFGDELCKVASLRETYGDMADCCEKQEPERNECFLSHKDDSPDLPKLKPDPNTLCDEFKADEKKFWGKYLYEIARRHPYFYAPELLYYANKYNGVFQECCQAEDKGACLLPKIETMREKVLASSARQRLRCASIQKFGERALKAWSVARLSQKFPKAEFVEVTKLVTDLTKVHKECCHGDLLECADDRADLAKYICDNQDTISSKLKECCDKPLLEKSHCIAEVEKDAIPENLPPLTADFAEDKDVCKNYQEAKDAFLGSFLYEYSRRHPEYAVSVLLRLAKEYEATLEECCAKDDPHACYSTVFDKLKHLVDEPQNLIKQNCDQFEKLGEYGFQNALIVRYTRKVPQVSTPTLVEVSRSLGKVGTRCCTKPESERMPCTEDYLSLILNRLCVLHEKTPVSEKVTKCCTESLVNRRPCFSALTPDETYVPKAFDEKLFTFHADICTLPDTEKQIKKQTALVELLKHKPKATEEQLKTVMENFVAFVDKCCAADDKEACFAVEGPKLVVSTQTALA

For assay [1], the target named is T1, PAS #1 sequence.
T1 sequence (peptide): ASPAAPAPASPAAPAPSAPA
Put plainly: SPOT peptide array / hybridoma screening.

The target in assay [2] is T1, PAS #1 sequence. Put plainly: ELISA and SPR with Fabs. Background: An ELISA detects its analyte on a solid surface through an enzyme-linked reagent.
The target of assay [3] is T2, Pga-….
T2 sequence (peptide, N-terminal pyroglutamyl residue (Pga), counted as P1 in the structures): APASPAAPA
Put plainly: co-crystal structure of the recombinant Fab with the peptide.

A further assay addresses BSA (bovine) (UniProt P02769). Put plainly: ELISA, Fab titrated on BSA as control.
The target of another assay is T3, P/A #1 sequence.
T3 sequence (peptide): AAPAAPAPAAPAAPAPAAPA
Put plainly: SPOT peptide array / hybridoma screening.

Results are given in words; binding and its absence hold for the method and conditions named. Some binding calls cover weakened binding; strength is not graded here.

B1: Anti-PA(S) MAb 1.1 (antibody, V domains shown)
VH: QVQLKESGPGLVAPSQSLSITCTVSGFSLTGYGVNWVRQPPGKGLEWLGMIWGDGITDYNSALKSRLSISKDNSKSQVFLKMNSLQTDDTARYYCARDYYGRRYYAMDYWGQGTSVTVSS
VL: DIVLTQSPASLAVSLGQRATISCRASKSVSSSGYNYMFWYQQKPGQPPKLLIYLASNLESGVPDRFWGSGSGTDFTLNIHPVEEEDAATYYCQHSRELPLTFGAGTKLELKR
Regarding B1, the binding entry in the assay with PAS #1 sequence [1] is “binds”.

B2: Fab fragment of Anti-PA(S) MAb 1.1 (Fab, V domains shown)
VH: QVQLKESGPGLVAPSQSLSITCTVSGFSLTGYGVNWVRQPPGKGLEWLGMIWGDGITDYNSALKSRLSISKDNSKSQVFLKMNSLQTDDTARYYCARDYYGRRYYAMDYWGQGTSVTVSS
VL: DIVLTQSPASLAVSLGQRATISCRASKSVSSSGYNYMFWYQQKPGQPPKLLIYLASNLESGVPDRFWGSGSGTDFTLNIHPVEEEDAATYYCQHSRELPLTFGAGTKLELKR
In the case of B2, the binding result (with PAS #1 sequence [2]; in assay [3]) was “binds” throughout.

B3: Fab fragment of Anti-PA(S) MAb 2.1 (Fab, V domains shown)
VH: QVTLKESGPGILQPSQTLSLTCSFSGFSLSTYDMGVGWIRQPSGKGLEWLANIWWNDNKYYNSALKSRLTISKDTSNNQVFLKISSVDATDTATYYCAQMRDNYGVWFAFWGQGTLVTVSA
VL: DIVMSQSPSSLAVSVGEKVTMSCKSSQSLFYSNREKNYLAWYQQKPGQSPKLLIYWASTRESGVPDRFTGSGSGTDFTLTISNVKAEDLAVYYCQQYYNYPTFGAGTKLELKR
B3: the binding result with BSA (bovine) is “no binding (tested: 50 nM)”.

B4: Anti-PA(S) MAb 2.1 (antibody, V domains shown)
VH: QVTLKESGPGILQPSQTLSLTCSFSGFSLSTYDMGVGWIRQPSGKGLEWLANIWWNDNKYYNSALKSRLTISKDTSNNQVFLKISSVDATDTATYYCAQMRDNYGVWFAFWGQGTLVTVSA
VL: DIVMSQSPSSLAVSVGEKVTMSCKSSQSLFYSNREKNYLAWYQQKPGQSPKLLIYWASTRESGVPDRFTGSGSGTDFTLTISNVKAEDLAVYYCQQYYNYPTFGAGTKLELKR
Regarding B4, the binding entry with PAS #1 sequence [1] and in the assay with P/A #1 sequence was “binds” each time.

B5: Anti-PA(S) MAb 1.2 (antibody, V domains shown)
VH: QVQLVESGGGLVQPGGSLKLSCAASGFTFSSYGMSWVRQTPDKRLELVATINSNGGSTYYLDSVKGRFTISRDKAKNTLYLQMSSLKSEDTAMYYCVRGGSIYDGYDYAMDYWGQGTSVTVSS
VL: DIVLTQSPASLAVSLGQRATISCRASQSVSTSSYSYMHWFQQKPGQPPKLLIKYASNLESGVPARFSGSGSGTDFTLNIHPVEEEDTATYYCQHSWEIPLTFGAGTKLELKR
Consider B5, for which the binding entry with PAS #1 sequence [1] is “binds”.
